Measured values as given in patent US20110287023A1.
Results are given in words; binding and its absence hold for the method and conditions named. Some results given as binding are weak or reduced against the parent protein; the word gives no strength.

By UniProt entry, the sequences of proteins in these tests, tags left out. Residues count along the entry.
UniProt Q62151, residues 24-342: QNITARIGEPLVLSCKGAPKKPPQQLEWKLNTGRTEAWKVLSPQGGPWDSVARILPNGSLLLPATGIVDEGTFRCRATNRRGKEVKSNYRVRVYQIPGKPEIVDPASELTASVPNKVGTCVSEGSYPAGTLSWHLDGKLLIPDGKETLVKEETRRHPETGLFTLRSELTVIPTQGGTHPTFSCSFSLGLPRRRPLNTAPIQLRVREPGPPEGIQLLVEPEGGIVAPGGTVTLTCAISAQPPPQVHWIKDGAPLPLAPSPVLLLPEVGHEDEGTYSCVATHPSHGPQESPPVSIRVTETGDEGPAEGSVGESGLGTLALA
UniProt P63159: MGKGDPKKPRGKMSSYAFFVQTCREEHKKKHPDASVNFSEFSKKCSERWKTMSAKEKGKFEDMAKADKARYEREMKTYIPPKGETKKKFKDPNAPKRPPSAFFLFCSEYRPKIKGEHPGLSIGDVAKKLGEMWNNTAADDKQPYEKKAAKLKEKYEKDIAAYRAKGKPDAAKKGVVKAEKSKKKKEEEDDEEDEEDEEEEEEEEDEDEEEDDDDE
UniProt P10103, residues 2-215: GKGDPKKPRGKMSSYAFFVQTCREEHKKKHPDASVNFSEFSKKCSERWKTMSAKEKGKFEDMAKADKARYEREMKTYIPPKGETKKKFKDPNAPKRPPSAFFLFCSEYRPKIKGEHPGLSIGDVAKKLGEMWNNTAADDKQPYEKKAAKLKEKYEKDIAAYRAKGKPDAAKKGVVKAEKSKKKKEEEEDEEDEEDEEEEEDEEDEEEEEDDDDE
UniProt Q15109, residues 24-344: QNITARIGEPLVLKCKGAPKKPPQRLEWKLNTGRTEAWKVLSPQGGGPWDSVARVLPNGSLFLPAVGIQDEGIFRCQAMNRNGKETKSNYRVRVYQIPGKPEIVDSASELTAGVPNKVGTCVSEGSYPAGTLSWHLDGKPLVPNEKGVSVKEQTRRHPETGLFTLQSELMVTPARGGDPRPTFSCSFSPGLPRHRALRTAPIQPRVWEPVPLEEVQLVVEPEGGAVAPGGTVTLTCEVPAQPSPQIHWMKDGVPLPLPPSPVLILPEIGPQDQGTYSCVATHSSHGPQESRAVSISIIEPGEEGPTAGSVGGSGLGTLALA

Experiments:
[1] = target: mouse RAGE/Fc fusion protein (mouse) (UniProt Q62151); assay: ELISA on RAGE-Fc, FIG. 35
[2] = target: mouse RAGE/Fc fusion protein (mouse) (UniProt Q62151); assay: ELISA (right panel): RAGE-Fc immobilized, HMGB1 titrated without CpG-A
[3] = target: mouse RAGE/Fc fusion protein (mouse) (UniProt Q62151); assay: ELISA
[4] = target: mouse RAGE/Fc fusion protein (mouse) (UniProt Q62151); assay: ELISA on immobilized RAGE/Fc
[5] = target: mouse RAGE/Fc fusion protein (mouse) (UniProt Q62151); assay: ELISA on immobilized RAGE/Fc, biotin CpG-A detected, FIG. 35
[6] = target: mouse RAGE/Fc fusion protein (mouse) (UniProt Q62151); assay: ELISA (right panel): RAGE-Fc immobilized, HMGB1 titrated in the presence of 0.3 µM CpG-A
[7] = target: mouse RAGE/Fc fusion protein (mouse) (UniProt Q62151); assay: ELISA (right panel): RAGE-Fc immobilized, HMGB1 titrated in the presence of 0.03 µM CpG-A
[8] = target: mouse RAGE/Fc fusion protein (mouse) (UniProt Q62151); assay: ELISA (right panel): RAGE-Fc immobilized, HMGB1 titrated in the presence of 0.003 µM CpG-A
[9] = target: mouse RAGE/Fc fusion protein (mouse) (UniProt Q62151); assay: ELISA (left panel): RAGE/Fc immobilized ('Insoluble'), soluble complex of HMGB1 with biotin-labelled CpG titrated, detected by the biotin on CpG
[10] = target: recombinant rat HMGB-1 labelled with europium (rat) (UniProt P63159); assay: competition: 2 nM europium-labelled HMGB-1 binding to THP-1 cells in the presence of the titrated inhibitor, fluorescence (cps)

Measured: binding

HMG1 purified from calf (bovine) thymus (from UniProt P10103 2-215)
binds: [1] | [2]

complex of thymus HMGB1 with CpG-A DNA (from UniProt P10103 2-215)
binds: [3] | [4] | [5] | [6] | [7] | [8] | [9]

human RAGE-Fc fusion protein (from UniProt Q15109 24-344)
binds: [10]
